Laboratory results published in the supplement of paper PMC10849652.
The other results are listed elsewhere or left out.

By UniProt entry, the sequences of proteins in these tests, tags left out. Where a name states a change or a piece, a line headed by the entry shows the natural chain unless it says otherwise.
UniProt Q9Y265, whole entry, looked up: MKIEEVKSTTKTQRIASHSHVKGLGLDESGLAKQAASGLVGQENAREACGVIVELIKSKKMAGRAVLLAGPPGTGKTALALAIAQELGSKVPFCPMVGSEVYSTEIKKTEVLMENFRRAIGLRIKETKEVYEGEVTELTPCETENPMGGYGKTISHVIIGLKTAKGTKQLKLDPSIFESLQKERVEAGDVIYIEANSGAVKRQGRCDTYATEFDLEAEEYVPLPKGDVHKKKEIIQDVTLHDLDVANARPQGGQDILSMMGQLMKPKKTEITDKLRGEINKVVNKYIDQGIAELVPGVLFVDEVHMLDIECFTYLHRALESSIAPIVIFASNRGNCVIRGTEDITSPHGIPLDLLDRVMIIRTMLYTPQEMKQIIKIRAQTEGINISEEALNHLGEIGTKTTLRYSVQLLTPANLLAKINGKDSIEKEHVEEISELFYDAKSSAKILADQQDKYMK
UniProt Q8WVM8, whole entry, looked up: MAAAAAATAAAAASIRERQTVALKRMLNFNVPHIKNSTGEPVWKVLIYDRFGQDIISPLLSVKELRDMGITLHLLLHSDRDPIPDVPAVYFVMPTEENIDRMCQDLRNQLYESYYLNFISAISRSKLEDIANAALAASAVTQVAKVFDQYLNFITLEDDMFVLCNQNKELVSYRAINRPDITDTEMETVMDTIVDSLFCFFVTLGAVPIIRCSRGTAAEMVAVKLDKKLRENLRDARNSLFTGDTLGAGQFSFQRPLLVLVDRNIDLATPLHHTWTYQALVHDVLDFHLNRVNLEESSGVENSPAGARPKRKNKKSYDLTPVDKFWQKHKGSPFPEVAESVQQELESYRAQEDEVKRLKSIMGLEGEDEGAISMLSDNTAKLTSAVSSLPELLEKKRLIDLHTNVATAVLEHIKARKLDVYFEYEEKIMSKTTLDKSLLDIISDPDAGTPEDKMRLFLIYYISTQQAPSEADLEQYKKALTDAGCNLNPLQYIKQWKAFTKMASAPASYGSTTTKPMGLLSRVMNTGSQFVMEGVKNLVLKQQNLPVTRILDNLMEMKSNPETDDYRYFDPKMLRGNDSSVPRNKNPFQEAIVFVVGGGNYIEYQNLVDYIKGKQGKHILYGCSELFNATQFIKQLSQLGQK
UniProt Q15404: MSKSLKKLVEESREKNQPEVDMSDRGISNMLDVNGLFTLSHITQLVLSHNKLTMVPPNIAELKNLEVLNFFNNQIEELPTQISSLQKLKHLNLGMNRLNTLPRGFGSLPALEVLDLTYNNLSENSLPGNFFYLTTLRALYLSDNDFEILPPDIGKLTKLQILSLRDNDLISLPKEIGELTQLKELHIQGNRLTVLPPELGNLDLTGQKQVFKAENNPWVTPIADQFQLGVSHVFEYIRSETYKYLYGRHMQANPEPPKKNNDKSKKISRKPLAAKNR
UniProt Q9NRP4: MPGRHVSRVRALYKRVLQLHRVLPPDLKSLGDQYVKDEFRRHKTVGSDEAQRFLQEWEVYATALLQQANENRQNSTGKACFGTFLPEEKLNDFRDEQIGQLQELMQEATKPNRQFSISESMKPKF
UniProt Q9H446: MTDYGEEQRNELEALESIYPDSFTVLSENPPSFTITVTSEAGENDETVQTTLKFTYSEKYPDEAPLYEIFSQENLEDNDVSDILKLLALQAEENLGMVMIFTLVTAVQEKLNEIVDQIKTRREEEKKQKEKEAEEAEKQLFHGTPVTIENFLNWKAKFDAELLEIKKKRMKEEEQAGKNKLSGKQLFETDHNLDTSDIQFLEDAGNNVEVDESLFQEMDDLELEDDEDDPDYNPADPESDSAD
UniProt Q9Y3B9: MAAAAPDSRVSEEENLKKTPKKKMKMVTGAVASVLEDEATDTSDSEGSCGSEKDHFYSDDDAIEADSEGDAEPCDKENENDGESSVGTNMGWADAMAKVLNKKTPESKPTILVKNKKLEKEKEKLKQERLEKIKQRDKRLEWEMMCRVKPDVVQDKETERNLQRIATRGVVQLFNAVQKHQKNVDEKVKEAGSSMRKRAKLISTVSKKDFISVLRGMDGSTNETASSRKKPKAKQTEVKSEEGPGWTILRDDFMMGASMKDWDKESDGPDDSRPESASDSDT
UniProt Q6PCB5: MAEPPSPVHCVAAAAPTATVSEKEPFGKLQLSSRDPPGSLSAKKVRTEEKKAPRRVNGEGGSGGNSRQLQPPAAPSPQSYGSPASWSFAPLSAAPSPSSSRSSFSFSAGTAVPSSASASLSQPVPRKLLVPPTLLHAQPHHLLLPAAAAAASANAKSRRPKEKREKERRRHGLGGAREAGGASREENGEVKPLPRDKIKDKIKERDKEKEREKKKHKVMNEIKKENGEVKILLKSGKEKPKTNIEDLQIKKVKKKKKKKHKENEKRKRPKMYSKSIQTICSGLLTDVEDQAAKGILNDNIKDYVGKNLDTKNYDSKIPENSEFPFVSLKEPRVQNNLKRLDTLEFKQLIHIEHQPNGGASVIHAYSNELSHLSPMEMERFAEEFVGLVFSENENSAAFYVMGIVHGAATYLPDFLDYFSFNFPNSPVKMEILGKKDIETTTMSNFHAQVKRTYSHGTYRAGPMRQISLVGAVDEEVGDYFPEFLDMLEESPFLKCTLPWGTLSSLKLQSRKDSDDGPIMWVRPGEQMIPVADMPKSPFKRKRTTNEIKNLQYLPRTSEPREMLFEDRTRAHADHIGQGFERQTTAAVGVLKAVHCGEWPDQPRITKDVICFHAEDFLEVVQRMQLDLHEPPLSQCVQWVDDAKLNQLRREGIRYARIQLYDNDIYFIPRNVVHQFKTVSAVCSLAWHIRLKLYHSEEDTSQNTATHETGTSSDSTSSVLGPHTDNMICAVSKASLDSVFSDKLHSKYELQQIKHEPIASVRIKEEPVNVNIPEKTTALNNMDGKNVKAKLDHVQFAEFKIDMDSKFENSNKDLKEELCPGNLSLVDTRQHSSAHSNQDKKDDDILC
UniProt Q96KG9: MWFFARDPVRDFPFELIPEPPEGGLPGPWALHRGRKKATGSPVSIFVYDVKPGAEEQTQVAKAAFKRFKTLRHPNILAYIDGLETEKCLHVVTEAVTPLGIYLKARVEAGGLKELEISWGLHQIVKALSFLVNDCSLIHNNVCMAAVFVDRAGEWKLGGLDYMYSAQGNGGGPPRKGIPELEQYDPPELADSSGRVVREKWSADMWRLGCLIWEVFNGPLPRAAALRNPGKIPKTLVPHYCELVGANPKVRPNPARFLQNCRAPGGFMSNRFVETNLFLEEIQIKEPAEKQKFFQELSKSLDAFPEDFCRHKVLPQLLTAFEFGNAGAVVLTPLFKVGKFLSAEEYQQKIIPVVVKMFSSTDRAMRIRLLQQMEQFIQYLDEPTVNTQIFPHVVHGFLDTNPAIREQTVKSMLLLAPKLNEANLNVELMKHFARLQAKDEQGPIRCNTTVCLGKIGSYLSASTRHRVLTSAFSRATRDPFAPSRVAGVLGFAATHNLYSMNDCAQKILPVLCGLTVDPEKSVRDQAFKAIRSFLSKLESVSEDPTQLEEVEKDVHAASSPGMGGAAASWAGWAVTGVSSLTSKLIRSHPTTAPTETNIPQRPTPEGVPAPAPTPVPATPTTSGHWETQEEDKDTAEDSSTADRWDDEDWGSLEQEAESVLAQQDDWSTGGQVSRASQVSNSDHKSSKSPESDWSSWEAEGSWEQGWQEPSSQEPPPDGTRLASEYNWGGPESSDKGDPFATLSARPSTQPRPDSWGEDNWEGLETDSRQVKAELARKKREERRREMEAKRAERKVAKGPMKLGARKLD
UniProt Q9BRK5: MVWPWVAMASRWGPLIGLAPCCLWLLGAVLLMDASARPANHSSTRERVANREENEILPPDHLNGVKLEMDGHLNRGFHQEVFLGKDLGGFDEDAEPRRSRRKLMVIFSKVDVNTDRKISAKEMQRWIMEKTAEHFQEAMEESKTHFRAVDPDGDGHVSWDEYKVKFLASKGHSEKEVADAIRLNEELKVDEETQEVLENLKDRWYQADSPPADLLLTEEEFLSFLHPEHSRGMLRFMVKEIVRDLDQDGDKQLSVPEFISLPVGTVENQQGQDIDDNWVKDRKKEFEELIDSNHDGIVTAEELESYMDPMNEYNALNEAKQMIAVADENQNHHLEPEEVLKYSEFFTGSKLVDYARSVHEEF
UniProt Q9Y230, whole entry, looked up: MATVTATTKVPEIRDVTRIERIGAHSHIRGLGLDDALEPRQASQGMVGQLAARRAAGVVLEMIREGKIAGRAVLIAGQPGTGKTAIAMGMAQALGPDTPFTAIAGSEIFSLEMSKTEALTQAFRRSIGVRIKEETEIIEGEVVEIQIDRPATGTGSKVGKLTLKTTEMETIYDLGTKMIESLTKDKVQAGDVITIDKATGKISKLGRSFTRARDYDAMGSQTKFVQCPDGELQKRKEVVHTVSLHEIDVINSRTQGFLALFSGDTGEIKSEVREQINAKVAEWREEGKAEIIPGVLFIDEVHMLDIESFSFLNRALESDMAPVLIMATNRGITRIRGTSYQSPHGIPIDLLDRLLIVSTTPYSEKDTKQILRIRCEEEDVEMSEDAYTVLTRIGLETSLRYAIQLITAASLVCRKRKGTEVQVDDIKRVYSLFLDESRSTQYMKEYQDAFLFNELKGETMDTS
UniProt Q96ER3: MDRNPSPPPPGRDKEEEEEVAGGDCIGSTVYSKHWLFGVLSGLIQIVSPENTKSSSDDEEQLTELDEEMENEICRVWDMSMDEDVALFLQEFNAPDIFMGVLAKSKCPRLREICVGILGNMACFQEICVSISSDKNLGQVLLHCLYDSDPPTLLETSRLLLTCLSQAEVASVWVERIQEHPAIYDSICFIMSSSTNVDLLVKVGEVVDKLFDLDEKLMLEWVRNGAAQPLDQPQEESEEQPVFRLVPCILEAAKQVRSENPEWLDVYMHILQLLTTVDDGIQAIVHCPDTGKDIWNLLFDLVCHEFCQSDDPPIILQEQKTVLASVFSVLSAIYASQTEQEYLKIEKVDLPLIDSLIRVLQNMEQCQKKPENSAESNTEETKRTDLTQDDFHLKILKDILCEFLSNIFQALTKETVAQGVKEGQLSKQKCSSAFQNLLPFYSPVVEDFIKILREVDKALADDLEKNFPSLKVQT
UniProt Q96EU6: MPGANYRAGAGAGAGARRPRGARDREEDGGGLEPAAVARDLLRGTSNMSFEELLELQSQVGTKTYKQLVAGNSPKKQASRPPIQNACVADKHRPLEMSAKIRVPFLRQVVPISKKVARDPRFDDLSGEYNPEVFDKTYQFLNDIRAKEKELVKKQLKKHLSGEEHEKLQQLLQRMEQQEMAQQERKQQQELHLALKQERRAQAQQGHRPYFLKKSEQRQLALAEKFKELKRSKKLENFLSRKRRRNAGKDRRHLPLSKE
UniProt Q9BY42: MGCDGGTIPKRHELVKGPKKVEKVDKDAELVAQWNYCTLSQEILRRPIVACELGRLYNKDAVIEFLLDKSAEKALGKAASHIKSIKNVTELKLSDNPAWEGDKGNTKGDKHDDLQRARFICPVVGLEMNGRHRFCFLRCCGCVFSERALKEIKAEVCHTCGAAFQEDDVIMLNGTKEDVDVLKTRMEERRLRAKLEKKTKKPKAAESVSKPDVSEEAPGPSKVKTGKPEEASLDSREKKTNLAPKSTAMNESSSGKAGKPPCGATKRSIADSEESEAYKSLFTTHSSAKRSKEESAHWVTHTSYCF
UniProt Q9NX18: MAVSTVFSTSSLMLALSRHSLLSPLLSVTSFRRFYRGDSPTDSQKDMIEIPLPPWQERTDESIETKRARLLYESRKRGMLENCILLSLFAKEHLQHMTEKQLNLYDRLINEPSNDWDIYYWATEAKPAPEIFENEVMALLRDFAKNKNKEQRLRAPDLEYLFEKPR
UniProt Q14684: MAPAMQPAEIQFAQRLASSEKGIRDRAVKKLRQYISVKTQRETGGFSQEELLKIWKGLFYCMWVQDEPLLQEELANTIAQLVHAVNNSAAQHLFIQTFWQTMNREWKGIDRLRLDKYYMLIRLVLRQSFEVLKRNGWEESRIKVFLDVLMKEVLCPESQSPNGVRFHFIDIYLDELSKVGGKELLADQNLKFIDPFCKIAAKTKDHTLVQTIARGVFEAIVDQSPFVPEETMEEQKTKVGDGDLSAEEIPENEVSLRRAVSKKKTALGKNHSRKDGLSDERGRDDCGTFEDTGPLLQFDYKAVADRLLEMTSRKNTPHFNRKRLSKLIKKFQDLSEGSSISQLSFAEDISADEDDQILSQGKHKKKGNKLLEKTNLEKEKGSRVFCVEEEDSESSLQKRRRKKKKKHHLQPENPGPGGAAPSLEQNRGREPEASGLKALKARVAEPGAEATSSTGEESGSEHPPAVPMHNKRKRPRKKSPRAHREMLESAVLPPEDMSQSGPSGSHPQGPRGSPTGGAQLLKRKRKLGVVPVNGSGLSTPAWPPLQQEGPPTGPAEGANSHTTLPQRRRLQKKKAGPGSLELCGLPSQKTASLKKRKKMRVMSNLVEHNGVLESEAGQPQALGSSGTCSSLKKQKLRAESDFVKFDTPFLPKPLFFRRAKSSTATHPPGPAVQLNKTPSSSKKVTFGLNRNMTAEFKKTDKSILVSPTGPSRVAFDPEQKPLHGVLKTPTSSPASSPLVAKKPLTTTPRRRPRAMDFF

Key:
Experiment in all cases: log2 fold change, soluble protein after heating vs DMSO (PISA); higher = thermal stabilisation; K562 cells, 10 uM, 30 min; active = over 0.2 and 3.5 SD of the protein, either way, in both replicates (recomputed)
[1] = compound: CN1CCN(CCOc2cc(OC3CCOCC3)c3c(Nc4c(Cl)ccc5c4OCO5)ncnc3c2)CC1 [saracatinib]
Outline: (§1)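 K562 cells at 2×10^6 cells/mL were exposed to 10 μM compound for 30 min, then aliquots were heated for 3 min across 48°C-58°C, pooled, and extracted in PBS containing 0.5% NP-40 at 4°C. The supernatant after 21,000xg for 90 min was taken as soluble protein and measured by TMTpro 16plex LC-MS/MS with channel sums equalised. Thermal stability is reported relative to control samples, with values from duplicates. Fold changes are given on a log2 scale.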

[2] = compound: CN1CCN(c2nc(C3=C(c4c[nH]c5ccccc45)C(=O)NC3=O)c3ccccc3n2)CC1 [sotrastaurin]
Outline: as §1

[3] = compound: CN1CC[C@H](c2c(O)cc(O)c3c(=O)cc(-c4ccccc4Cl)oc23)[C@H](O)C1 [alvocidib]
Outline: as §1

[4] = compound: CN1CCc2c(c3ccccc3n2Cc2ccc(C(=O)NO)cc2)C1 [Tubastatin A]
Outline: as §1

[5] = compound: CNC(=O)C1=CC=CC=C1NC2=NC(=NC=C2Cl)NC3=C(C=C(C=C3)N4CCOCC4)OC
Outline: as §1

[6] = compound: CNC(=O)c1ccc(Nc2ncc(C(F)(F)F)c(NCc3nccnc3N(C)S(C)(=O)=O)n2)cc1 [defactinib]
Outline: as §1

[7] = compound: CNCc1ccc(-c2[nH]c3cc(F)cc4c3c2CCNC4=O)cc1 [rucaparib]
Outline: as §1

[8] = compound: CNc1nc(-c2ccc3c(N)n[nH]c3c2)cc(N2C[C@@H](C(=O)NC3CCCCC3)CC[C@H]2C)n1
Outline: as §1

[9] = compound: COC(=O)N[C@@H](C)CNc1nccc(-c2cn(C(C)C)nc2-c2cc(Cl)cc(NS(C)(=O)=O)c2F)n1 [encorafenib]
Outline: as §1

[10] = compound: COC(=O)[C@H](CCSC)NC(=O)C1=C(C=C(C=C1)NC[C@H](CS)N)C2=CC=CC=C2
Outline: as §1

Target	log2 fold change [1]	log2 fold change [2]	log2 fold change [3]	log2 fold change [4]	log2 fold change [5]	log2 fold change [6]	log2 fold change [7]	log2 fold change [8]	log2 fold change [9]	log2 fold change [10]
RUVBL1 (UniProt Q9Y265)	inactive: 0.021	inactive: 0.043	inactive: 0.042	inactive: -0.048	inactive: 0.018	inactive: 0.018	inactive: -0.021	inactive: -0.026	inactive: -0.047	inactive: 0.03
SEC24D isoform 2 (UniProt O94855)	inactive: 0.017	inactive: -0.09	inactive: -0.035	inactive: 0.034	inactive: 0.039	inactive: -0.042	inactive: -0.035	inactive: -0.085	inactive: 0.062	inactive: -0.039
SCFD1 (UniProt Q8WVM8)	inactive: -0.058	inactive: -0.048	inactive: -0.07	inactive: 0.001	inactive: 0.01	inactive: -0.088	inactive: 0.064	inactive: 0.038	inactive: 0.038	inactive: -0.024
RSU1 (UniProt Q15404)	inactive: -0.007	inactive: 0.031	inactive: 0.013	inactive: -0.006	inactive: -0.055	inactive: -0.04	inactive: -0.027	inactive: -0.023	inactive: -0.016	inactive: -0.006
SDHAF3 (UniProt Q9NRP4)	inactive: 0.091	inactive: -0.031	inactive: -0.009	inactive: -0.133	inactive: 0.015	inactive: -0.051	inactive: 0.023	inactive: -0.155	inactive: -0.024	inactive: 0.013
SACS (UniProt Q9NZJ4)	inactive: -0.034	inactive: 0	inactive: 0.017	inactive: -0.087	inactive: 0	inactive: 0.085	inactive: -0.054	inactive: -0.079	inactive: 0.076	inactive: 0.061
RWDD1 (UniProt Q9H446)	inactive: 0.045	inactive: -0.01	inactive: -0.043	inactive: -0.003	inactive: 0.047	inactive: -0.068	inactive: -0.079	inactive: -0.016	inactive: 0.007	inactive: 0.011
SAMHD1 (UniProt Q9Y3Z3)	inactive: 0.042	inactive: 0.054	inactive: -0.006	inactive: -0.021	inactive: -0.199	inactive: -0.007	inactive: 0.046	inactive: -0.055	inactive: -0.002	inactive: 0.026
RTN4 isoform 2 (UniProt Q9NQC3)	inactive: -0.017	inactive: 0.058	inactive: 0.027	inactive: 0.021	inactive: 0.111	inactive: 0.015		inactive: -0.078		inactive: 0.009
RRP15 (UniProt Q9Y3B9)	inactive: 0.042	inactive: 0.028	inactive: 0.001	inactive: -0.014	inactive: -0.035	inactive: 0.024	inactive: -0.025	inactive: -0.033	inactive: -0.032	inactive: 0.068
RSBN1L (UniProt Q6PCB5)	inactive: -0.004	inactive: -0.045	inactive: 0.188	inactive: 0.081	inactive: 0.022	inactive: 0.228	inactive: 0.222	inactive: 0.058	inactive: 0.169	inactive: -0.035
SCYL1 (UniProt Q96KG9)	inactive: 0.012	inactive: -0.017	inactive: -0.03	inactive: -0.004	inactive: -0.017	inactive: -0.061	inactive: -0.013	inactive: -0.004	inactive: 0.05	inactive: 0.018
SAP18 isoform 2 (UniProt O00422)	inactive: -0.012	inactive: -0.092	inactive: 0.078	inactive: 0.008	inactive: -0.004	inactive: 0.181	inactive: 0.224	inactive: 0.015	inactive: -0.037	inactive: -0.03
SDF4 (UniProt Q9BRK5)	inactive: 0.011	inactive: 0.027	inactive: 0.011	inactive: -0.005	inactive: 0.041	inactive: 0.004	inactive: 0.05	inactive: -0.08	inactive: 0	inactive: -0.04
SEC24B isoform 3 (UniProt O95487)	inactive: -0.027	inactive: -0.058	inactive: -0.03	inactive: 0.168		inactive: -0.032	inactive: 0.17	inactive: 0.001	inactive: 0.049	inactive: -0.064
RUVBL2 (UniProt Q9Y230)	inactive: 0.033	inactive: 0.026	inactive: 0.038	inactive: -0.011	inactive: 0.013	inactive: 0.008	inactive: -0.056	inactive: 0.003	inactive: -0.029	inactive: 0.008
S100A6 (UniProt P06703)	inactive: -0.099	inactive: -0.001	inactive: 0.019	inactive: 0.088	inactive: 0.025		inactive: -0.095	inactive: -0.046	inactive: 0.14	
SEC22B (UniProt O75396)	inactive: 0.011	inactive: 0.002	inactive: -0.044	inactive: 0	inactive: 0.007	inactive: -0.055	inactive: -0.063	inactive: 0.02	inactive: 0.01	inactive: 0.011
SAAL1 (UniProt Q96ER3)	inactive: 0.001	inactive: -0.044	active: 0.355	inactive: -0.089	inactive: 0.042	inactive: 0.203	inactive: 0.031	inactive: -0.069	inactive: 0.017	inactive: -0.031
RRP36 (UniProt Q96EU6)	inactive: -0.021	inactive: -0.067		inactive: 0.17	inactive: 0.073	inactive: 0.351	inactive: 0.057	inactive: 0.007	inactive: 0.092	inactive: 0.05
RTF2 (UniProt Q9BY42)	inactive: -0.021	inactive: -0.007		inactive: 0.099	inactive: 0.083	inactive: -0.151	inactive: 0.027	inactive: -0.142	inactive: 0.058	inactive: -0.045
SDHC (UniProt Q99643)	inactive: 0.074	inactive: -0.201		inactive: -0.134	inactive: 0.04	inactive: -0.062	inactive: -0.012	inactive: -0.159	inactive: 0.029	inactive: 0.159
SAFB2 (UniProt Q14151)	inactive: -0.055	inactive: -0.028		inactive: -0.048	inactive: -0.022	inactive: 0.144	inactive: 0.1	inactive: -0.067	inactive: 0.029	inactive: -0.005
RSL1D1 (UniProt O76021)	inactive: -0.086	inactive: 0.05		inactive: 0.06	inactive: 0.004	active: 0.83	inactive: 0.359	inactive: 0.097	inactive: 0.117	inactive: 0.079
SAMSN1 isoform 3 (UniProt Q9NSI8)	inactive: -0.023	inactive: -0.081		inactive: 0.036	inactive: 0.002	inactive: -0.051	inactive: -0.003	inactive: -0.029	inactive: 0.046	inactive: 0.024
SDHAF2 (UniProt Q9NX18)	inactive: 0.08	inactive: -0.035		inactive: 0.037	inactive: 0.016	inactive: -0.002	inactive: 0.115	inactive: -0.078	inactive: -0.003	inactive: 0.01
RSRC1 (UniProt Q96IZ7)	inactive: 0.04	inactive: 0.042		inactive: 0.018	active: -0.215	inactive: -0.018	inactive: -0.04	inactive: -0.004	inactive: 0.023	inactive: 0.052
RRP1B (UniProt Q14684)	inactive: 0.041	inactive: 0.125		inactive: 0.005	inactive: 0.123	inactive: 0.137	inactive: -0.078	inactive: -0.323	inactive: 0.079	inactive: -0.008

Two entries picked at random from those above:
Target	log2 fold change [1]	log2 fold change [2]	log2 fold change [3]	log2 fold change [4]	log2 fold change [5]	log2 fold change [6]	log2 fold change [7]	log2 fold change [8]	log2 fold change [9]	log2 fold change [10]
RSU1 (UniProt Q15404)	inactive: -0.007	inactive: 0.031	inactive: 0.013	inactive: -0.006	inactive: -0.055	inactive: -0.04	inactive: -0.027	inactive: -0.023	inactive: -0.016	inactive: -0.006
RRP36 (UniProt Q96EU6)	inactive: -0.021	inactive: -0.067		inactive: 0.17	inactive: 0.073	inactive: 0.351	inactive: 0.057	inactive: 0.007	inactive: 0.092	inactive: 0.05
